{
  "source": "patent US20040014648A1",
  "about": "“Methods for the prevention and/or the treatment of neurological disorders” (FAUST PHARMACEUTICALS, priority 2002, published 2004)",
  "system": "primary cultures of neurons, isolated from the rat brain cortex",
  "details": "kainic acid 100 μM; compound at 0.1, 1 and 5 μM (lanes 3-5); FIG. 3",
  "data": [
    {"molecule": "CN1C(=O)CN=C(c2ccccc2)c2cc(Cl)ccc21", "note": "[Diazepam]", "values": [
      {"measurement": "neuroprotective effect against kainic acid", "result": "neuroprotective effect of Diazepam observed at all concentrations"}
    ]}
  ]
}
